From US7531507B2 (AiCuris GmbH & Co. KG, priority 2004, dated 2009)
Starred links: 1 amine or outer side, 2 acyl side, 3 side chain; linkers in the order of their positions; H or OH if unused. Positions of bridges follow the written chain, without caps; N, C: chain ends. Non-standard residues stand in square brackets, D forms with d. Phe(3R-OH) = O=C([C@@H](N[*:1])[C@H](O[*:3])c1ccccc1)[*:2]; Asn(3S-OH) = NC(=O)[C@@H](O)[C@H](N)C(=O)O; Leu(3R-OH) = CC(C)[C@@H](O)[C@H](N)C(=O)O; dAla(TMS) = C[Si](C)(C)C[C@@H](N)C(=O)O; 3Pal = N[C@@H](Cc1cccnc1)C(=O)O; aThr = C[C@H](O)[C@H](N)C(=O)O

Test: general procedure: solution-phase peptide synthesis; HATU, N-methylmorpholine
Settings: trifluoroacetate
[1] = late stage modification step, cyclic, sequence written open

Substance: 3-(Trimethylsilyl)-D-alanyl-3-(pyridin-3-yl)-L-alanyl-de(1-D-leucyl-2-L-leucyl)-lysobactin trismethanesulphonate
- step yield (late stage modification step, run 1): 55% of theory
- step yield (late stage modification step, run 2): 92% of theory

Substance: 3-tert-Butyl-D-alanyl-3-(6-trifluoromethylpyridin-3-yl)-L-alanyl-de(1-D-leucyl-2-L-leucyl)-lysobactin bistrifluoroacetate
- step yield [1]: 48% of theory

Substance: 4,4-Dimethyl-D-norleucyl-3-(pyridin-3-yl)-L-alanyl-de(1-D-leucyl-2-L-leucyl)lysobactin tristrifluoroacetate
- step yield [1]: 46% of theory

Substance: (Trimethylsilyl)-D-alanyl-3-(pyridin-3-yl)-L-alanyl-de(1-D-leucyl-2-L-leucyl)lysobactin tris-D-tartrate
- step yield (late stage modification step): 52% of theory

Substance: (Trimethylsilyl)-D-alanyl-3-(pyridin-3-yl)-L-alanyl-de(1-D-leucyl-2-L-leucyl)lysobactin tris-L-lactate
- step yield (late stage modification step): 99% of theory

Substance: (Trimethylsilyl)-D-alanyl-3-(pyridin-3-yl)-L-alanyl-de(1-D-leucyl-2-L-leucyl)lysobactin trishydrochloride
- step yield (late stage modification step): 89% of theory

Substance: De(1-D-leucyl-2-L-leucyl)lysobactin bistrifluoroacetate (Edman^2.0 Degradation Product)
- step yield (late stage modification step, from lysobactin bistrifluoroacetate): 56% of theory

Substance: H-[dAla(TMS)][3Pal][Phe(3R-OH)][Leu(3R-OH)]L[dR]I[aThr]G[Asn(3S-OH)]S (ester 3-C; SMILES CC[C@H](C)[C@@H]1NC(=O)[C@@H](CCCNC(=N)N)NC(=O)[C@H](CC(C)C)NC(=O)[C@H]([C@H](O)C(C)C)NC(=O)[C@@H](NC(=O)[C@H](Cc2cccnc2)NC(=O)[C@H](N)C[Si](C)(C)C)[C@@H](c2ccccc2)OC(=O)[C@H](CO)NC(=O)[C@H]([C@H](O)C(N)=O)NC(=O)CNC(=O)[C@H]([C@H](C)O)NC1=O)
- step yield (late stage modification step): 67% of theory

Substance: N-(tert-Butoxycarbonyl)-3-(trimethylsilyl)-D-alanyl-3-(pyridin-3-yl)-L-alanyl-de(1-D-leucyl-2-L-leucyl)lysobactin trifluoroacetate
- step yield (coupling step, run 1): 82%
- step yield (coupling step, run 2): 61%

Substance: N-[(Benzyloxy)carbonyl]-4,4-dimethyl-D-norleucyl-3-(pyridin-3-yl)-L-alanyl-de(1-D-leucyl-2-L-leucyl)-lysobactin trifluoroacetate
- step yield (coupling step): 43% of theory
